The list does not hold the whole screen: it is rich in T/C values a quarter to a half above the control, in often repeated tests (any T/C) and in doses without a T/C. Other doses and runs of a compound stand elsewhere. T/C gives the treated animals as a percentage of the vehicle group. Some entries give survivors of the animals treated and no T/C: the source files T/C as zero there, which appears to mark a toxic dose or a test without result, not a measured value. Some survivor counts are full or nearly so, which does not show that the dose was tolerated: survival well below the control is almost never listed, so the zero probably covers shortened survival too. Counts of survivors are from the toxicity check (mostly the fifth day) where no day follows; animals may have died later. Schedules are NCI's codes, taken here to give the interval after Q, in days (D) or hours (H), and the number of doses after X. Some structures stand for samples that the source files as different forms (salt, stereo form or complex); doses refer to the form tested. For survival time, the PubChem record calls one and a half times the control and up active, and a quarter to a half above the control has no call in these data; cut-offs in other NCI protocols can differ. Some entries were tested several times; their values stand side by side, smallest first. Some T/C values are followed by the survivors on the day toxicity was checked, most often the fifth; where none is given, no animal had died by that day.
Tested on: BDF1 mice, P388 leukemia ip, median survival T/C
Assay: NCI In Vivo Anticancer Drug Screen. Data for tumor model P388 Leukemia (intraperitoneal) in B6D2F1 (BDF1) mice
Conditions: T/C endpoint: median survival time, higher T/C = longer survival
In short: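 T/C = treated-group survival ÷ vehicle-control survival; tumour transplanted into mice before dosing.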

[1] = dose: 200.0 mg/kg/injection, schedule: Q04DX003 (ip), vehicle: Klucel (hydroxypropylcellulose) (HPC)
[2] = dose: 400.0 mg/kg/injection, schedule: Q04DX003 (ip), vehicle: saline with Tween-80
[3] = dose: 200.0 mg/kg/injection, schedule: Q01DX009 (ip), vehicle: saline
[4] = dose: 100.0 mg/kg/injection, schedule: Q01DX009 (ip), vehicle: saline with Tween-80
[5] = dose: 200.0 mg/kg/injection, schedule: Q01DX009 (ip), vehicle: saline with Tween-80
[6] = dose: 25.0 mg/kg/injection, schedule: Q01DX009 (ip), vehicle: Klucel (hydroxypropylcellulose) (HPC)
[7] = dose: 400.0 mg/kg/injection, schedule: Q01DX009 (ip), vehicle: saline with Tween-80
[8] = dose: 12.5 mg/kg/injection, schedule: Q01DX009 (ip), vehicle: Klucel (hydroxypropylcellulose) (HPC)
[9] = dose: 200.0 mg/kg/injection, schedule: Q04DX003 (ip), vehicle: saline

`O=C(/C=N\O)c1ccncc1` was tested, and the survivor count [1] was 3 of 6.
With `Clc1ccc2c(Cl)ncnc2c1` the survivor count [2] was 0 of 6.
In the case of `CCOC(=O)c1c[nH]c2c(OC)cccc2c1=O`, the survivor count [2] is reported as 2 of 6.
For `C#CC(C)OCC1CO1` (centres undefined), the survivor count [3] was 3 of 6.
With `CCOC(=O)C(OCc1ccccc1)(C(=O)Cl)C(C)C` (centres undefined) the survivor count [4] was 0 of 6 and the survivor count [5] was 0 of 6.
In the case of `ClC(Cl)(Cl)c1ccc(C(Cl)(Cl)Cl)cc1`, the T/C [6] is reported as 125 and 129 % of control, the T/C (dose: 50.0 mg/kg/injection, schedule: Q04DX003 (ip), vehicle: Klucel (hydroxypropylcellulose) (HPC)) is reported as 136 % of control and the T/C (dose: 75.0 mg/kg/injection, schedule: Q04DX003 (ip), vehicle: Klucel (hydroxypropylcellulose) (HPC)) is reported as 136 % of control. The survivor count (dose: 100.0 mg/kg/injection, schedule: Q01DX009 (ip), vehicle: Klucel (hydroxypropylcellulose) (HPC)) was 6 of 6.
With `O=C1c2cc(O)c(O)cc2O[C@H](c2ccc(O)c(O)c2)[C@H]1O` the T/C (dose: 30.0 mg/kg/injection, schedule: Q01DX009 (ip), vehicle: saline) was 127 % of control, the T/C (dose: 125.0 mg/kg/injection, schedule: Q01DX009 (ip), vehicle: saline) was 127 % of control and the T/C (dose: 250.0 mg/kg/injection, schedule: Q01DX009 (ip), vehicle: saline) was 142 % of control.
With `CC1CC(C)(O)C2C3(C)CCCC2(COC3=O)C12CCC1(CCOC1=O)O2` (centres undefined) the survivor count (dose: 20.0 mg/kg/injection, schedule: Q01DX009 (ip), vehicle: Klucel (hydroxypropylcellulose) (HPC)) was 6 of 6.
For `O=C1C(Br)=Cc2cccc3cccc1c23`, the survivor count [4] was 6 of 6 and the survivor count [7] was 6 of 6.
For `Cc1ccc(NCCN(C)C)c2c(=O)c3ccccc3sc12`, the T/C (dose: 29.0 mg/kg/injection, schedule: Q04DX003 (ip), vehicle: saline) was 140 % of control, the T/C (dose: 45.0 mg/kg/injection, schedule: Q04DX003 (ip), vehicle: saline) was 130 % of control and the T/C (dose: 66.0 mg/kg/injection, schedule: Q04DX003 (ip), vehicle: saline) was 131 and 140 % of control. The survivor count (dose: 150.0 mg/kg/injection, schedule: Q04DX003 (ip), vehicle: saline) was 6 of 6 and the survivor count (dose: 400.0 mg/kg/injection, schedule: Q04DX003 (ip), vehicle: alcohol) was 1 of 6.
In the case of `OC1CCCC2CCC[N-]C12.OC1CCCC2CCC[N-]C12.[Mn+2]` (centres undefined), the T/C (dose: 200.0 mg/kg/injection, schedule: Q01DX009 (ip), vehicle: DMSO) is reported as 130 % of control.
In the case of `COc1cc(C=Nc2cccc(Cl)c2)ccc1N(CCCl)CCCl`, the T/C (dose: 4.0 mg/kg/injection, schedule: Q04DX003 (ip), vehicle: saline with Tween-80) is reported as 133 % of control and the T/C (dose: 75.0 mg/kg/injection, schedule: Q04DX003 (ip), vehicle: saline with Tween-80) is reported as 142 % of control.
In the case of `CNC(=O)OCc1c(COC(=O)NC)c(-c2ccc(F)cc2)n2c1CCC2`, the T/C (dose: 0.78 mg/kg/injection, schedule: Q01DX009 (ip), vehicle: Klucel (hydroxypropylcellulose) (HPC)) is reported as 146 % of control, the T/C (dose: 3.13 mg/kg/injection, schedule: Q01DX009 (ip), vehicle: Klucel (hydroxypropylcellulose) (HPC)) is reported as 141 % of control and the T/C (dose: 6.25 mg/kg/injection, schedule: Q01DX009 (ip), vehicle: Klucel (hydroxypropylcellulose) (HPC)) is reported as 137 % of control. The T/C [8] was 128 % of control [5 of 6 alive].
With `CSC(=S)NN=C1CCCCC1` the survivor count (dose: 50.0 mg/kg/injection, schedule: Q01DX009 (ip), vehicle: saline with Tween-80) was 1 of 6, the survivor count [4] was 0 of 6 and the survivor count [5] was 0 of 6.
In the case of `O=c1[nH]cc(Br)c2sccc12`, the survivor count (dose: 335.0 mg/kg/injection, schedule: Q01DX009 (ip), vehicle: saline) is reported as 4 of 6.
For `CC(=O)OCC1OC(n2ccc(N)nc2=O)C(OC(C)=O)C1OC(C)=O` (centres undefined), the T/C (dose: 100.0 mg/kg/injection, schedule: Q04DX003 (ip), vehicle: saline) was 129 % of control, the T/C [9] was 133 % of control and the survivor count [7] was 5 of 6. For the same compound, the T/C (dose: 400.0 mg/kg/injection, schedule: Q04DX003 (ip), vehicle: saline) was 141 % of control.
With `CCOc1cccc2c1C(=O)c1c(O)c3c(c(O)c1C2=O)C[C@@](O)(C(C)=O)C[C@@H]3OC1CC(N)C(O)C(C)O1` (some centres undefined) the T/C (dose: 12.5 mg/kg/injection, schedule: Q04DX003 (ip), vehicle: water) was 127 % of control, the T/C (dose: 25.0 mg/kg/injection, schedule: Q04DX003 (ip), vehicle: water) was 136 % of control and the survivor count (dose: 100.0 mg/kg/injection, schedule: Q04DX003 (ip), vehicle: water) was 2 of 6.
With `Nc1nc([Se])c2ncn(C3OC(CO)C(O)C3O)c2n1` (centres undefined) the T/C (dose: 1.0 mg/kg/injection, schedule: Q01DX009 (ip), vehicle: saline) was 129 % of control, the T/C (dose: 2.0 mg/kg/injection, schedule: Q01DX009 (ip), vehicle: saline) was 136 % of control and the T/C (dose: 4.0 mg/kg/injection, schedule: Q01DX009 (ip), vehicle: saline) was 125 % of control. For the same compound, the T/C (dose: 8.0 mg/kg/injection, schedule: Q01DX009 (ip), vehicle: saline) was 138 % of control, the T/C (dose: 16.0 mg/kg/injection, schedule: Q01DX009 (ip), vehicle: saline) was 138 % of control and the survivor count (dose: 64.0 mg/kg/injection, schedule: Q01DX009 (ip), vehicle: saline) was 5 of 6.
With `CCCCCCCCCCCCNC(=O)CCC(=O)O` the survivor count (dose: 150.0 mg/kg/injection, schedule: Q01DX009 (ip), vehicle: saline with Tween-80) was 2 of 7.
With `BrCc1ccc2c3c(ccc(CBr)c13)CC2` the T/C (dose: 1.3 mg/kg/injection, schedule: Q04DX003 (ip), vehicle: saline) was 136 % of control, the T/C (dose: 2.1 mg/kg/injection, schedule: Q04DX003 (ip), vehicle: saline) was 145 % of control and the survivor count (dose: 2.4 mg/kg/injection, schedule: Q01DX009 (ip), vehicle: Klucel (hydroxypropylcellulose) (HPC)) was 0 of 6. For the same compound, the survivor count (dose: 3.6 mg/kg/injection, schedule: Q01DX009 (ip), vehicle: Klucel (hydroxypropylcellulose) (HPC)) was 0 of 6, the T/C (dose: 4.8 mg/kg/injection, schedule: Q04DX003 (ip), vehicle: Klucel (hydroxypropylcellulose) (HPC)) was 130 % of control and the T/C (dose: 5.5 mg/kg/injection, schedule: Q01DX009 (ip), vehicle: Klucel (hydroxypropylcellulose) (HPC)) was 130 % of control. For the same compound, the T/C (dose: 7.2 mg/kg/injection, schedule: Q04DX003 (ip), vehicle: Klucel (hydroxypropylcellulose) (HPC)) was 140 % of control, the T/C (dose: 8.2 mg/kg/injection, schedule: Q01DX009 (ip), vehicle: Klucel (hydroxypropylcellulose) (HPC)) was 128 % of control and the T/C (dose: 11.0 mg/kg/injection, schedule: Q04DX003 (ip), vehicle: Klucel (hydroxypropylcellulose) (HPC)) was 145 % of control. The T/C [8] was 133 % of control, the T/C [6] was 132 % of control and the T/C (dose: 50.0 mg/kg/injection, schedule: Q01DX009 (ip), vehicle: Klucel (hydroxypropylcellulose) (HPC)) was 127 and 145 % of control. For the same compound, the T/C (dose: 132.0 mg/kg/injection, schedule: Q04DX003 (ip), vehicle: Klucel (hydroxypropylcellulose) (HPC)) was 129 and 145 % of control, the T/C (dose: 132.0 mg/kg/injection, schedule: Q04DX003 (ip), vehicle: saline) was 127 % of control and the survivor count (dose: 200.0 mg/kg/injection, schedule: Q01DX009 (ip), vehicle: Klucel (hydroxypropylcellulose) (HPC)) was 4 of 6. For the same compound, the T/C [1] was 140 % of control [5 of 6 alive], the survivor count [1] was 5 of 6 and the survivor count [9] was 6 of 6. For the same compound, the survivor count (dose: 400.0 mg/kg/injection, schedule: Q01DX009 (ip), vehicle: Klucel (hydroxypropylcellulose) (HPC)) was 1 of 6.
In the case of `COc1cc(C=Nc2cccc(C(F)(F)F)c2)ccc1O`, the survivor count (dose: 400.0 mg/kg/injection, schedule: Q04DX003 (ip), vehicle: Klucel (hydroxypropylcellulose) (HPC)) is reported as 6 of 6.
In the case of `O=P(Oc1ccc(OP(=O)(N2CC2)N2CC2)cc1)(N1CC1)N1CC1`, the survivor count (dose: 600.0 mg/kg/injection, schedule: Q04DX003 (ip), vehicle: saline with Tween-80) is reported as 1 of 6.
In the case of `CCOC(=O)CC1=NN=C(N)SC1`, the T/C (dose: 50.0 mg/kg/injection, schedule: Q01DX009 (ip), vehicle: saline) is reported as 128 % of control and the survivor count [3] is reported as 4 of 6.

From PubChem BioAssay AID328 (DTP/NCI, 2004)
